# Results taken from US20070156042A1, “Medical device system and method for tracking and visualizing a medical device system under MR guidance” (priority 2005, published 2007).
# At least one structure is not confirmed: it was looked up by name or label, or the drawing left a doubt.
# Test: Diffusion of a fluorescent probe in swollen gelatin gel by FRAP
# Type: physicochemical
# Details: for diffusion coefficient in gelatin: room temperature
# Source text: To assess the stability of DTPA[Gd(III)] in the gelatin coating, the diffusion of a fluorescence probe in gelatin was studied by the technique of fluorescence recovery after photobleaching (FRAP). The instrument and data analysis scheme are described in Kim, S. H. and Yu, H., J. Phys. Chem. 1992, 96, 4034, which is hereby fully incorporated by reference. Fluorescein was used as the fluorescence probe due, in part, to its molecular size being roughly the same as that of DTPA[Gd(III)]. The focus of the study was to examine the possible retardation effects of gelatin concentration and cross-link density on the diffusion, which was determined at room temperature, i.e., below the gel point of gelatin. The diffusion of fluorescein probe slows down with the increase of gelatin concentration. The diffusion coefficient decreases from 1.5×10−10 to 9×10−12 m2s−1 when the concentration of gelatin increases from 9% to 40%. […] Accordingly, the probe diffusion is more likely controlled by the concentration of gelatin rather than the cross-link density. On the other hand, the cross-link density may determine the swelling ratio of gelatin, i.e., the concentration of gelatin in aqueous solution. Without intending to be limited by or restricted to any particular scientific theory, it appears that based upon the diffusion coefficient data, it may be possible to estimate how long will it take for DTPA[Gd(III)] or other paramagnetic-metal-ion/chelate complexes to diffuse out of the gelatin coating. For example, if the thickness of the gelatin coating is 60 μm, and the diffusion coefficient is 9×10−12 m2s−1, DTPA may diffuse out of the coating in about 67 seconds. In the MRI experiments, the samples were already soaked in water for 12 hours before MRI test. […] Based on the MRI experiments, however, it appears that some fraction of DTPA[Gd(III)] remained in the gel. […]
structure (smiles),measurement,setting,value
O=C1OC2(c3ccc(O)cc3Oc3cc(O)ccc32)c2ccccc21 [fluorescein],diffusion coefficient in gelatin,gelatin concentration 9%,1.5×10−10 m2s−1
same,diffusion coefficient in gelatin,gelatin concentration 40%,9×10−12 m2s−1
same,fluorescence signal after soaking of gelatin films,"gelatin films soaked in water for 18 hours, cross-linked and not cross-linked",still fluorescence signal
